Article doi:10.1101/2025.08.19.670962, “Structural basis for binding of RILPL1 to TMEM55B reveals a lysosomal platform for adaptor assembly through a conserved TBM motif” (bioRxiv, 2025)

Chains of the proteins cited; added tags and fusions are not shown. Lines headed by an entry give the natural chain unless they say otherwise; changes in a name come on top. A line that says so, or that is headed by a name, gives the form on record, which may keep a tag or linker.
Halo-TMEM55B (Q86T03, form named): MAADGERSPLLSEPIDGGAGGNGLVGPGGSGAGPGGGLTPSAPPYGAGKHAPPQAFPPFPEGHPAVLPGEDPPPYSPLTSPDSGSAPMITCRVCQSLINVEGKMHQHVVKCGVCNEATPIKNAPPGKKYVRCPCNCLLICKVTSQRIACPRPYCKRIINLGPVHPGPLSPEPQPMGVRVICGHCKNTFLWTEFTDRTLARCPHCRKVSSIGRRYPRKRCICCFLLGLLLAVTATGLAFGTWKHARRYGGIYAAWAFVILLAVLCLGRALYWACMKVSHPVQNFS
Halo-TMEM55B R151E (Q86T03, form named): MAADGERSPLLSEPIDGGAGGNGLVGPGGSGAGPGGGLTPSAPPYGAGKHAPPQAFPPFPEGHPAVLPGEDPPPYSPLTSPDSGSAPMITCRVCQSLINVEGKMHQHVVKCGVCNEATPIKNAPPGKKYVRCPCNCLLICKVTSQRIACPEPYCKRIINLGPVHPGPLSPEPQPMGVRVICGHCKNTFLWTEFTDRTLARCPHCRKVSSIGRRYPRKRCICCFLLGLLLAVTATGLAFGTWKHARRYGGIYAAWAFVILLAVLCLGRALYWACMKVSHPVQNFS

What was measured:
[1] = target: Halo-TMEM55B (UniProt Q86T03); assay: affinity purification with mass spectrometry; Halo-TMEM55B WT or R151E on HaloLink resin from transfected cells with Rab8A Q67L and LRRK2 Y1699C (or Y1699C D2017A); DIA-MS
[2] = target: Halo-TMEM55B R151E (UniProt Q86T03); assay: as above

Binder | binding [1] | binding [2]
RILPL1 (in HEK293 lysate) (protein, UniProt Q5EBL4 1-403) MEEERGSALAAESALEKNVAELTVMDVYDIASLVGHEFERVIDQHGCEAIARLMPKVVRVLEILEVLVSRHHVAPELDELRLELDRLRLERMDRIEKERKHQKELELVEDVWRGEAQDLLSQIAQLQEENKQLMTNLSHKDVNFSEEEFQKHEGMSERERQVMKKLKEVVDKQRDEIRAKDRELGLKNEDVEALQQQQTRLMKINHDLRHRVTVVEAQGKALIEQKVELEADLQTKEQEMGSLRAELGKLRERLQGEHSQNGEEEPETEPVGEESISDAEKVAMDLKDPNRPRFTLQELRDVLHERNELKSKVFLLQEELAYYKSEEMEEENRIPQPPPIAHPRTSPQPESGIKRLFSFFSRDKKRLANTQRNVHIQESFGQWANTHRDDGYTEQGQEALQHL | binds | 
JIP3 (in HEK293 lysate) (protein, UniProt Q9UPT6 1-1336) MMEIQMDEGGGVVVYQDDYCSGSVMSERVSGLAGSIYREFERLIHCYDEEVVKELMPLVVNVLENLDSVLSENQEHEVELELLREDNEQLLTQYEREKALRRQAEEKFIEFEDALEQEKKELQIQVEHYEFQTRQLELKAKNYADQISRLEERESEMKKEYNALHQRHTEMIQTYVEHIERSKMQQVGGNSQTESSLPGRRKERPTSLNVFPLADGTVRAQIGGKLVPAGDHWHLSDLGQLQSSSSYQCPQDEMSESGQSSAAATPSTTGTKSNTPTSSVPSAAVTPLNESLQPLGDYGVGSKNSKRAREKRDSRNMEVQVTQEMRNVSIGMGSSDEWSDVQDIIDSTPELDMCPETRLDRTGSSPTQGIVNKAFGINTDSLYHELSTAGSEVIGDVDEGADLLGEFSVRDDFFGMGKEVGNLLLENSQLLETKNALNVVKNDLIAKVDQLSGEQEVLRGELEAAKQAKVKLENRIKELEEELKRVKSEAIIARREPKEEAEDVSSYLCTESDKIPMAQRRRFTRVEMARVLMERNQYKERLMELQEAVRWTEMIRASREHPSVQEKKKSTIWQFFSRLFSSSSSPPPAKRPYPSVNIHYKSPTTAGFSQRRNHAMCPISAGSRPLEFFPDDDCTSSARREQKREQYRQVREHVRNDDGRLQACGWSLPAKYKQLSPNGGQEDTRMKNVPVPVYCRPLVEKDPTMKLWCAAGVNLSGWRPNEDDAGNGVKPAPGRDPLTCDREGDGEPKSAHTSPEKKKAKELPEMDATSSRVWILTSTLTTSKVVIIDANQPGTVVDQFTVCNAHVLCISSIPAASDSDYPPGEMFLDSDVNPEDPGADGVLAGITLVGCATRCNVPRSNCSSRGDTPVLDKGQGEVATIANGKVNPSQSTEEATEATEVPDPGPSEPETATLRPGPLTEHVFTDPAPTPSSGPQPGSENGPEPDSSSTRPEPEPSGDPTGAGSSAAPTMWLGAQNGWLYVHSAVANWKKCLHSIKLKDSVLSLVHVKGRVLVALADGTLAIFHRGEDGQWDLSNYHLMDLGHPHHSIRCMAVVYDRVWCGYKNKVHVIQPKTMQIEKSFDAHPRRESQVRQLAWIGDGVWVSIRLDSTLRLYHAHTHQHLQDVDIEPYVSKMLGTGKLGFSFVRITALLVAGSRLWVGTGNGVVISIPLTETVVLHRGQLLGLRANKTSPTSGEGARPGGIIHVYGDDSSDRAASSFIPYCSMAQAQLCFHGHRDAVKFFVSVPGNVLATLNGSVLDSPAEGPGPAAPASEVEGQKLRNVLVLSGGEGYIDFRIGDGEDDETEEGAGDMSQVKPVLSKAERSHIIVWQVSYTPE | binds | 
JIP4 (in HEK293 lysate) (protein, UniProt O60271 1-1321) MELEDGVVYQEEPGGSGAVMSERVSGLAGSIYREFERLIGRYDEEVVKELMPLVVAVLENLDSVFAQDQEHQVELELLRDDNEQLITQYEREKALRKHAEEKFIEFEDSQEQEKKDLQTRVESLESQTRQLELKAKNYADQISRLEEREAELKKEYNALHQRHTEMIHNYMEHLERTKLHQLSGSDQLESTAHSRIRKERPISLGIFPLPAGDGLLTPDAQKGGETPGSEQWKFQELSQPRSHTSLKVSNSPEPQKAVEQEDELSDVSQGGSKATTPASTANSDVATIPTDTPLKEENEGFVKVTDAPNKSEISKHIEVQVAQETRNVSTGSAENEEKSEVQAIIESTPELDMDKDLSGYKGSSTPTKGIENKAFDRNTESLFEELSSAGSGLIGDVDEGADLLGMGREVENLILENTQLLETKNALNIVKNDLIAKVDELTCEKDVLQGELEAVKQAKLKLEEKNRELEEELRKARAEAEDARQKAKDDDDSDIPTAQRKRFTRVEMARVLMERNQYKERLMELQEAVRWTEMIRASRENPAMQEKKRSSIWQFFSRLFSSSSNTTKKPEPPVNLKYNAPTSHVTPSVKKRSSTLSQLPGDKSKAFDFLSEETEASLASRREQKREQYRQVKAHVQKEDGRVQAFGWSLPQKYKQVTNGQGENKMKNLPVPVYLRPLDEKDTSMKLWCAVGVNLSGGKTRDGGSVVGASVFYKDVAGLDTEGSKQRSASQSSLDKLDQELKEQQKELKNQEELSSLVWICTSTHSATKVLIIDAVQPGNILDSFTVCNSHVLCIASVPGARETDYPAGEDLSESGQVDKASLCGSMTSNSSAETDSLLGGITVVGCSAEGVTGAATSPSTNGASPVMDKPPEMEAENSEVDENVPTAEEATEATEGNAGSAEDTVDISQTGVYTEHVFTDPLGVQIPEDLSPVYQSSNDSDAYKDQISVLPNEQDLVREEAQKMSSLLPTMWLGAQNGCLYVHSSVAQWRKCLHSIKLKDSILSIVHVKGIVLVALADGTLAIFHRGVDGQWDLSNYHLLDLGRPHHSIRCMTVVHDKVWCGYRNKIYVVQPKAMKIEKSFDAHPRKESQVRQLAWVGDGVWVSIRLDSTLRLYHAHTYQHLQDVDIEPYVSKMLGTGKLGFSFVRITALMVSCNRLWVGTGNGVIISIPLTETNKTSGVPGNRPGSVIRVYGDENSDKVTPGTFIPYCSMAHAQLCFHGHRDAVKFFVAVPGQVISPQSSSSGTDLTGDKAGPSAQEPGSQTPLKSMLVISGGEGYIDFRMGDEGGESELLGEDLPLEPSVTKAERSHLIVWQVMYGNE | binds | 
BLOC1S2 (protein, UniProt Q6QNY1 1-142) MAAAAEGVLATRSDEPARDDAAVETAEEAKEPAEADITELCRDMFSKMATYLTGELTATSEDYKLLENMNKLTSLKYLEMKDIAINISRNLKDLNQKYAGLQPYLDQINVIEEQVAALEQAAYKLDAYSKKLEAKYKKLEKR | binds | no binding
ZFYVE27 (protein, UniProt Q5T4F4 1-411) MQTSEREGSGPELSPSVMPEAPLESPPFPTKSPAFDLFNLVLSYKRLEIYLEPLKDAGDGVRYLLRWQMPLCSLLTCLGLNVLFLTLNEGAWYSVGALMISVPALLGYLQEVCRARLPDSELMRRKYHSVRQEDLQRGRLSRPEAVAEVKSFLIQLEAFLSRLCCTCEAAYRVLHWENPVVSSQFYGALLGTVCMLYLLPLCWVLTLLNSTLFLGNVEFFRVVSEYRASLQQRMNPKQEEHAFESPPPPDVGGKDGLMDSTPALTPTEDLTPGSVEEAEEAEPDEEFKDAIEETHLVVLEDDEGAPCPAEDELALQDNGFLSKNEVLRSKVSRLTERLRKRYPTNNFGNCTGCSATFSVLKKRRSCSNCGNSFCSRCCSFKVPKSSMGATAPEAQRETVFVCASCNQTLSK | binds | no binding
SNX19 (protein, UniProt Q92543 1-992) MKTETVPPFQETPAGSSCHLNNLLSSRKLMAVGVLLGWLLVIHLLVNVWLLCLLSALLVVLGGWLGSSLAGVASGRLHLERFIPLATCPPCPEAERQLEREINRTIQMIIRDFVLSWYRSVSQEPAFEEEMEAAMKGLVQELRRRMSVMDSHAVAQSVLTLCGCHLQSYIQAKEATAGKNGPVEPSHLWEAYCRATAPHPAVHSPSAEVTYTRGVVNLLLQGLVPKPHLETRTGRHVVVELITCNVILPLISRLSDPDWIHLVLVGIFSKARDPAPCPASAPEQPSVPTSLPLIAEVEQLPEGRASPVAAPVFLSYSEPEGSAGPSPEVEEGHEAVEGDLGGMCEERKVGNNSSHFLQPNVRGPLFLCEDSELESPLSELGKETIMLMTPGSFLSDRIQDALCALESSQALEPKDGEASEGAEAEEGPGTETETGLPVSTLNSCPEIHIDTADKEIEQGDVTASVTALLEGPEKTCPSRPSCLEKDLTNDVSSLDPTLPPVLLSSSPPGPLSSATFSFEPLSSPDGPVIIQNLRITGTITAREHSGTGFHPYTLYTVKYETALDGENSSGLQQLAYHTVNRRYREFLNLQTRLEEKPDLRKFIKNVKGPKKLFPDLPLGNMDSDRVEARKSLLESFLKQLCAIPEIANSEEVQEFLALNTDARIAFVKKPFMVSRIDKMVVSAIVDTLKTAFPRSEPQSPTEELSEAETESKPQTEGKKASKSRLRFSSSKISPALSVTEAQDKILYCLQEGNVESETLSMSAMESFIEKQTKLLEMQPTKAPEKDPEQPPKGRVDSCVSDAAVPAQDPSNSDPGTETELADTALDLLLLLLTEQWKWLCTENMQKFLRLIFGTLVQRWLEVQVANLTSPQRWVQYLLLLQESIWPGGVLPKFPRPVRTQEQKLAAEKQALQSLMGVLPDLVVEILGVNKCRLSWGLVLESLQQPLINRHLIYCLGDIILEFLDLSASVEESAATTSASDTPGNSKRMGVSS | binds | no binding
SNX25 (protein, UniProt Q9H3E2 1-840) MDKALKEVFDYSYRDYILSWYGNLSRDEGQLYHLLLEDFWEIARQLHHRLSHVDVVKVVCNDVVRTLLTHFCDLKAANARHEEQPRPFVLHACLRNSDDEVRFLQTCSRVLVFCLLPSKDVQSLSLRIMLAEILTTKVLKPVVELLSNPDYINQMLLAQLAYREQMNEHHKRAYTYAPSYEDFIKLINSNSDVEFLKQLRYQIVVEIIQATTISSFPQLKRHKGKETAAMKADLLRARNMKRYINQLTVAKKQCEKRIRILGGPAYDQQEDGALDEGEGPQSQKILQFEDILANTFYREHFGMYMERMDKRALISFWESVEHLKNANKNEIPQLVGEIYQNFFVESKEISVEKSLYKEIQQCLVGNKGIEVFYKIQEDVYETLKDRYYPSFIVSDLYEKLLIKEEEKHASQMISNKDEMGPRDEAGEEAVDDGTNQINEQASFAVNKLRELNEKLEYKRQALNSIQNAPKPDKKIVSKLKDEIILIEKERTDLQLHMARTDWWCENLGMWKASITSGEVTEENGEQLPCYFVMVSLQEVGGVETKNWTVPRRLSEFQNLHRKLSECVPSLKKVQLPSLSKLPFKSIDQKFMEKSKNQLNKFLQNLLSDERLCQSEALYAFLSPSPDYLKVIDVQGKKNSFSLSSFLERLPRDFFSHQEEETEEDSDLSDYGDDVDGRKDALAEPCFMLIGEIFELRGMFKWVRRTLIALVQVTFGRTINKQIRDTVSWIFSEQMLVYYINIFRDAFWPNGKLAPPTTIRSKEQSQETKQRAQQKLLENIPDMLQSLVGQQNARHGIIKIFNALQETRANKHLLYALMELLLIELCPELRVHLDQLKAGQV | binds | no binding

Results are given in words; binding and its absence hold for the method and conditions named. Binding seen in cells or lysates may run through a third protein. Here binding means that the protein was enriched with, or labelled near, the bait; the list need not be complete. For some assays here: A no says only that the protein was not detected with the bait.
